The text below walks through data of paper PMC8519309.

No constants are given. Whether binding was seen depends on the method and setting. For some of these results: A result given as binding can be weak or reduced; the word gives no strength. For some of these results: Where a sequence is shown, tags or fusion partners need not be part of it. For some of these results: In cells and extracts the contact can be indirect.

The target in test [1] is T1, OsLIC-GST fusion protein (rice (Oryza sativa)) (UniProt Q5Z807).
T1 sequence: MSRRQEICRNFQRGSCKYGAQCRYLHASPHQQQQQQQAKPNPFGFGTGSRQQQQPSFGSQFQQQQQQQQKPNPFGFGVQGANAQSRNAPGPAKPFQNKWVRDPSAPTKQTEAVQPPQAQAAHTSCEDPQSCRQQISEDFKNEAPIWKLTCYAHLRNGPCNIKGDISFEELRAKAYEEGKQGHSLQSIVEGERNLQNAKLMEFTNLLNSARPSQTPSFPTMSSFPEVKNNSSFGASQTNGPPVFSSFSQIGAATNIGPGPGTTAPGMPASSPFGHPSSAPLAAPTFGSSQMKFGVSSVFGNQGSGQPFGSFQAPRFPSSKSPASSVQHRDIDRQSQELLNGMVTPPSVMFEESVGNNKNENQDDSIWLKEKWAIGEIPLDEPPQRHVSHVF
Briefly: pull-down; semi-in vivo pull-down: OsLIC-GST from E. coli as bait, total protein extracts of wild-type rice seedlings; OsRELA detected by immunoblot with anti-OsRELA polyclonal antibodies; only the target purified.

Test [2] concerns the target BD-OsRELA (1–1365 aa) (rice (Oryza sativa)) (UniProt Q0D4N6). Put plainly: two-hybrid; pGBKT7 bait and pGADT7 prey cotransformed into yeast AH109; growth on SD-Trp/-Leu/-His/-Ade; tenfold serial dilutions.
In test [3] the target is BD-OsRELA-T2 (200–643 aa) (rice (Oryza sativa)). The test is described as above.
For test [4], the target named is BD-OsRELA-T3 (1173–1365 aa) (rice (Oryza sativa)). Described as above.
For test [5], the target named is BD-OsRELA-T4 (1–1172 aa) (rice (Oryza sativa)). The test is described as above.
Test [6] concerns the target BD-OsRELA-T1 (1–199 aa) (rice (Oryza sativa)). The test is described as above.
In test [7] the target is OsRELA-NY (rice (Oryza sativa)). Put plainly: split reporter; BiFC with split YFP (pSPYNE/pSPYCE) in rice protoplasts, confocal microscopy.

In the case of “OsRELA (endogenous, wild-type rice seedlings)”, the binding result in test [1] was “binds”.

B1: OsBZR1 (protein, UniProt Q7XI96 1-298)
chain: MTSGAAAAGRTPTWKERENNKRRERRRRAIAAKIFTGLRALGNYNLPKHCDNNEVLKALCREAGWVVEDDGTTYRKGCKPPPSSAGGASVGMSPCSSTQLLSAPSSSFPSPVPSYHASPASSSFPSPSRIDNPSASCLLPFLRGLPNLPPLRVSSSAPVTPPLSSPTASRPPKIRKPDWDVDPFRHPFFAVSAPASPTRGRRLEHPDTIPECDESDVSTVDSGRWISFQMATTAPTSPTYNLVNPGASTSNSMEIEGTAGRGGAEFEFDKGRVTPWEGERIHEVAAEELELTLGVGAK
In the case of B1, in test [2], the binding entry was “no binding”.

B2: OsGSK2 (protein, UniProt Q60EZ2 1-402)
chain: MDQPAPAPEPMLLDAQPPAAVACDKKQQEGEAPYAEGNDAVTGHIISTTIGGKNGEPKRTISYMAERVVGTGSFGIVFQAKCLETGETVAIKKVLQDRRYKNRELQLMRAMDHPNVISLKHCFFSTTSRDELFLNLVMEYVPETLYRVLKHYSNANHRMPLIYVKLYMYQLFRGLAYIHTVPGVCHRDVKPQNVLVDPLTHQVKLCDFGSAKTLVPGEPNISYICSRYYRAPELIFGATEYTTSIDIWSAGCVLAELLLGQPLFPGESAVDQLVEIIKVLGTPTREEIRCMNPNYTEFRFPQIKAHPWHKVFHKRMPPEAIDLASRLLQYSPSLRCTALDACAHPFFDELREPNARLPNGRPFPPLFNFKHELANSSQELISRLIPEHVRRQATHNFFNTGS
For the molecule B2, the binding entry in test [2] is “no binding”.

B3: OsLIC-AD (protein, UniProt Q5Z807 1-390)
chain: MSRRQEICRNFQRGSCKYGAQCRYLHASPHQQQQQQQAKPNPFGFGTGSRQQQQPSFGSQFQQQQQQQQKPNPFGFGVQGANAQSRNAPGPAKPFQNKWVRDPSAPTKQTEAVQPPQAQAAHTSCEDPQSCRQQISEDFKNEAPIWKLTCYAHLRNGPCNIKGDISFEELRAKAYEEGKQGHSLQSIVEGERNLQNAKLMEFTNLLNSARPSQTPSFPTMSSFPEVKNNSSFGASQTNGPPVFSSFSQIGAATNIGPGPGTTAPGMPASSPFGHPSSAPLAAPTFGSSQMKFGVSSVFGNQGSGQPFGSFQAPRFPSSKSPASSVQHRDIDRQSQELLNGMVTPPSVMFEESVGNNKNENQDDSIWLKEKWAIGEIPLDEPPQRHVSHVF
In the case of B3, the binding result is on record as “no binding” in test [3]; “binds” in test [2]; “binds” in test [4]; “no binding” in test [5]; “no binding” in test [6].

B4: OsLIC-CY (protein, UniProt Q5Z807 1-390)
chain: MSRRQEICRNFQRGSCKYGAQCRYLHASPHQQQQQQQAKPNPFGFGTGSRQQQQPSFGSQFQQQQQQQQKPNPFGFGVQGANAQSRNAPGPAKPFQNKWVRDPSAPTKQTEAVQPPQAQAAHTSCEDPQSCRQQISEDFKNEAPIWKLTCYAHLRNGPCNIKGDISFEELRAKAYEEGKQGHSLQSIVEGERNLQNAKLMEFTNLLNSARPSQTPSFPTMSSFPEVKNNSSFGASQTNGPPVFSSFSQIGAATNIGPGPGTTAPGMPASSPFGHPSSAPLAAPTFGSSQMKFGVSSVFGNQGSGQPFGSFQAPRFPSSKSPASSVQHRDIDRQSQELLNGMVTPPSVMFEESVGNNKNENQDDSIWLKEKWAIGEIPLDEPPQRHVSHVF
For the molecule B4, the binding result in test [7] is recorded as “binds”.

B5: DLT (protein, UniProt Q9LWU9 1-617)
chain: MLAGCSFSSSRHQMSTAQRFDILPCGFSKRGSRGDGAAPRVAGDARSGATTCSFRTHPAPPVTQSVSWGAKPEPGGNGNGAHRAVKRAHDEDAVEEYGPIVRAKRTRMGGDGDEVWFHQSIAGTMQATAAGEGEEAEEEKVFLVPSAAAFPHGMAAAGPSLAAAKKEEYSKSPSDSSSSSGTDGGSSAMMPPPQPPEFDARNGVPAPGQAEREALELVRALTACADSLSAGNHEAANYYLARLGEMASPAGPTPMHRVAAYFTEALALRVVRMWPHMFDIGPPRELTDDAFGGGDDDAMALRILNAITPIPRFLHFTLNERLLREFEGHERVHVIDFDIKQGLQWPGLLQSLAARAVPPAHVRITGVGESRQELQETGARLARVAAALGLAFEFHAVVDRLEDVRLWMLHVKRGECVAVNCVLAMHRLLRDDAALTDFLGLARSTGATILLLGEHEGGGLNSGRWEARFARALRYYAAAFDAVDAAGLPEASPARAKAEEMFAREIRNAVAFEGPERFERHESFAGWRRRMEDGGGFKNAGIGEREAMQGRMIARMFGPDKYTVQAHGGGGSGGGEALTLRWLDQPLYTVTAWTPAGDGAGGSTVSASTTASHSQQS
With B5, in test [2], the binding result is given as “no binding”.
